From PMC6305323
No constants are given. Whether binding was seen depends on the method and setting. Some results given as binding are weak or reduced against the parent protein; the word gives no strength.

T1: OsJAZ10 (rice (Oryza sativa cv. Dongjin)) (UniProt Q7XPM8)
T1 sequence: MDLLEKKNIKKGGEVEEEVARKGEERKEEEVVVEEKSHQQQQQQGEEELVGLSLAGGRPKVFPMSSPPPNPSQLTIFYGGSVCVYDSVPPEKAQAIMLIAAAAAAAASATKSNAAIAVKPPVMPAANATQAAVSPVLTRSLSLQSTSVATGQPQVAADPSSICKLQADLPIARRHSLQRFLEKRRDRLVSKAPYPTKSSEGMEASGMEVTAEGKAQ

T2: OsJAZ11 (rice (Oryza sativa cv. Dongjin)) (UniProt Q7XV97)
T2 sequence: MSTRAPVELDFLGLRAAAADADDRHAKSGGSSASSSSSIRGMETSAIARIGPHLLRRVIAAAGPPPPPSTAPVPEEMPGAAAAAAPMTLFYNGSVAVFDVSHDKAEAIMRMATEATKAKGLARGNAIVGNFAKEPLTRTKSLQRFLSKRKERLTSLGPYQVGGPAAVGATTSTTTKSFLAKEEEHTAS

T3: OsJAZ2 (rice (Oryza sativa cv. Dongjin)) (UniProt Q8GRS2)
T3 sequence: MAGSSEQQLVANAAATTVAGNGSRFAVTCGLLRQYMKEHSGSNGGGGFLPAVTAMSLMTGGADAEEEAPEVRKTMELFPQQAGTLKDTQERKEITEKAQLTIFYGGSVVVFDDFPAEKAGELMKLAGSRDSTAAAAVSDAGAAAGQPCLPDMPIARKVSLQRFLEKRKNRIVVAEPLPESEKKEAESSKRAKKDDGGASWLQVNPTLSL

T4: OsJAZ3 (rice (Oryza sativa cv. Dongjin)) (UniProt Q8GSI0)
T4 sequence: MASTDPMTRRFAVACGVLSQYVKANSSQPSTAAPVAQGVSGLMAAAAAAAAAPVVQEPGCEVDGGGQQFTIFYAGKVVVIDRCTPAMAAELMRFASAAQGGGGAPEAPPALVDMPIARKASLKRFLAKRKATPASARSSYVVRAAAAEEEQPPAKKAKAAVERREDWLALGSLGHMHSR

T5: OsJAZ5 (rice (Oryza sativa cv. Dongjin)) (UniProt Q84R94)
T5 sequence: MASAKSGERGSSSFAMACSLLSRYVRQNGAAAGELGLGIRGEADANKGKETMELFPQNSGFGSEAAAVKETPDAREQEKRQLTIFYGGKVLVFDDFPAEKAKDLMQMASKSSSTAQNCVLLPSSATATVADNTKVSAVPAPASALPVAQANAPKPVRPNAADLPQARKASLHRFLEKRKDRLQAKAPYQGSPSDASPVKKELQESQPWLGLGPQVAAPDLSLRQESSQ

T6: OsJAZ7 (rice (Oryza sativa cv. Dongjin)) (UniProt Q69P94)
T6 sequence: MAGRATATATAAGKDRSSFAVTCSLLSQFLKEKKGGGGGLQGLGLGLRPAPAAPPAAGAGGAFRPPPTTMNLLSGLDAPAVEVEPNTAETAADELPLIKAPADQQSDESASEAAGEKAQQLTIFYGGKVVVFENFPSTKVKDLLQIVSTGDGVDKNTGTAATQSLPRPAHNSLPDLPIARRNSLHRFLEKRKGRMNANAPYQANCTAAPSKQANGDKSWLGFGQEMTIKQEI

T7: OsJAZ8 (rice (Oryza sativa cv. Dongjin)) (UniProt Q6ES51)
T7 sequence: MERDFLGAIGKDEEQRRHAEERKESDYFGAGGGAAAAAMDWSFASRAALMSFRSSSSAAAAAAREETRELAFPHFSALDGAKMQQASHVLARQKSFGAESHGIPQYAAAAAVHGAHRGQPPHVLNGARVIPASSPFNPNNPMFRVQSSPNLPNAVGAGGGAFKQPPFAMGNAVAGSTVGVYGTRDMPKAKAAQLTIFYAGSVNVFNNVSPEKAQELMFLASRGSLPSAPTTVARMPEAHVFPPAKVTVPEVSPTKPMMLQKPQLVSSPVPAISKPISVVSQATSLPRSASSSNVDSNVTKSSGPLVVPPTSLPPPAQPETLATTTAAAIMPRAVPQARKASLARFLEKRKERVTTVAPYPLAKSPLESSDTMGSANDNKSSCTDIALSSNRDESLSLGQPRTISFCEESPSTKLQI

B1: SLENDER RICE 1 (SLR1) (protein, UniProt Q7G7J6 1-625)
chain: MKREYQEAGGSSGGGSSADMGSCKDKVMAGAAGEEEDVDELLAALGYKVRSSDMADVAQKLEQLEMAMGMGGVSAPGAADDGFVSHLATDTVHYNPSDLSSWVESMLSELNAPLPPIPPAPPAARHASTSSTVTGGGGSGFFELPAAADSSSSTYALRPISLPVVATADPSAADSARDTKRMRTGGGSTSSSSSSSSSLGGGASRGSVVEAAPPATQGAAAANAPAVPVVVVDTQEAGIRLVHALLACAEAVQQENFAAAEALVKQIPTLAASQGGAMRKVAAYFGEALARRVYRFRPADSTLLDAAFADLLHAHFYESCPYLKFAHFTANQAILEAFAGCHRVHVVDFGIKQGMQWPALLQALALRPGGPPSFRLTGVGPPQPDETDALQQVGWKLAQFAHTIRVDFQYRGLVAATLADLEPFMLQPEGEADANEEPEVIAVNSVFELHRLLAQPGALEKVLGTVHAVRPRIVTVVEQEANHNSGSFLDRFTESLHYYSTMFDSLEGGSSGQAELSPPAAGGGGGTDQVMSEVYLGRQICNVVACEGAERTERHETLGQWRNRLGRAGFEPVHLGSNAYKQASTLLALFAGGDGYRVEEKEGCLTLGWHTRPLIATSAWRVAAA
B2: SLR1-LIKE (SLRL) protein SLRL2 (protein, UniProt Q6F368 1-500)
chain: MAQFGGFGGWSAMDVAAAAAAALGNVSGAVYHADPAAAVYASLVPGMAVVPGRAPPSAVQIEAARRWKELEKMALRSVNLMVTCAGAIQAGDYAAAAGSLSDAREIFAKMPTTRTGIGRVLTHFADALAERLFPAFPQSAPPPPPPRGEQRELFRGFYEAGPYLKFAHLAANQAILEAFEGCNSVHVIDFALTDGIQWPSLIQALAVRPGGPPFLRITGIGPHAAGNRDELRDVGLRLAEFARSCSVPFAFRGIAADQLDGLRPWMFQVAPGEAVAINSVLQLHRLLVDQDAAAAASFPAPIDGVLDWVASMNPRVFTVVEQEADHNKSSLLERFTNSLFYYASMFDSLEAISRHGGGDGAGNPLAEAYLQGEIADIVSREGSSRVERHEQMPRWVERLRRGGMTQLPLGATGLWQAAMQLREFSGAGFGVQENGGFLTLTWHSQRLYSASAWRATAGKKMTMMASGAADAMEESQNSNTNGGGGGSSGGGHGALNQIMQ
B3: SLR1-LIKE protein SLRL1 (protein, UniProt B7F9I5 1-495)
chain: MAMDTFPFQWPMDPAASSGLDAGFLPPPAAVAPDDGVGYYDPPAGADVDAAALPEFAAAFPPCAPDAAAAVLAMRREEEEVAGIRLVHLLMSCAGAIEAGDHALASAQLADSHAALAAVSAASGIGRVAVHFTTALSRRLFPSPVAPPTTDAEHAFLYHHFYEACPYLKFAHFTANQAILEAFHGCDHVHVIDFSLMQGLQWPALIQALALRPGGPPFLRITGIGPPSPTGRDELRDVGLRLADLARSVRVRFSFRGVAANSLDEVRPWMLQIAPGEAVAFNSVLQLHRLLGDPADQAPIDAVLDCVASVRPKIFTVIEQEADHNKTGFLDRFTEALFYYSAVFDSLDAASASGGAGNAMAEAYLQREICDIVCGEGAARRERHEPLSRWRDRLTRAGLSAVPLGSNALRQARMLVGLFSGEGHSVEEADGCLTLGWHGRPLFSASAWEAAGDGGGDNNNNSNSNVSGSSGSDSNNSGSSNGKSSGARDGSSVCL

Key:
Test in all cases: two-hybrid; Matchmaker Gold (Clontech), Y2H Gold yeast; JAZs as bait in pGBKT7, DELLAs as prey in pGADT7; growth on DDO (-Leu/-Trp) media with 250 ng/mL Aureobasidin A, 5 days in the dark at 30°C
[1] = biological target: T1, OsJAZ10 (rice (Oryza sativa cv. Dongjin))
[2] = biological target: T2, OsJAZ11 (rice (Oryza sativa cv. Dongjin))
[3] = biological target: T3, OsJAZ2 (rice (Oryza sativa cv. Dongjin))
[4] = biological target: T4, OsJAZ3 (rice (Oryza sativa cv. Dongjin))
[5] = biological target: T5, OsJAZ5 (rice (Oryza sativa cv. Dongjin))
[6] = biological target: T6, OsJAZ7 (rice (Oryza sativa cv. Dongjin))
[7] = biological target: T7, OsJAZ8 (rice (Oryza sativa cv. Dongjin))

| Binder | binding [1] | binding [2] | binding [3] | binding [4] | binding [5] | binding [6] | binding [7] |
| --- | --- | --- | --- | --- | --- | --- | --- |
| B1 | no binding | no binding | no binding | no binding | no binding | no binding | binds |
| B2 | no binding | no binding | no binding | no binding | no binding | no binding | no binding |
| B3 | no binding | no binding | no binding | no binding | no binding | no binding | no binding |
